Reference: paper PMC10932366
These are yes or no findings as the source states them, for the method shown. In cells and extracts the contact can be indirect. Some results given as binding are weak or reduced against the parent protein; the word gives no strength.

Sequences of proteins named here, by UniProt entry; tags and fusion partners are left off.
UniProt O94776: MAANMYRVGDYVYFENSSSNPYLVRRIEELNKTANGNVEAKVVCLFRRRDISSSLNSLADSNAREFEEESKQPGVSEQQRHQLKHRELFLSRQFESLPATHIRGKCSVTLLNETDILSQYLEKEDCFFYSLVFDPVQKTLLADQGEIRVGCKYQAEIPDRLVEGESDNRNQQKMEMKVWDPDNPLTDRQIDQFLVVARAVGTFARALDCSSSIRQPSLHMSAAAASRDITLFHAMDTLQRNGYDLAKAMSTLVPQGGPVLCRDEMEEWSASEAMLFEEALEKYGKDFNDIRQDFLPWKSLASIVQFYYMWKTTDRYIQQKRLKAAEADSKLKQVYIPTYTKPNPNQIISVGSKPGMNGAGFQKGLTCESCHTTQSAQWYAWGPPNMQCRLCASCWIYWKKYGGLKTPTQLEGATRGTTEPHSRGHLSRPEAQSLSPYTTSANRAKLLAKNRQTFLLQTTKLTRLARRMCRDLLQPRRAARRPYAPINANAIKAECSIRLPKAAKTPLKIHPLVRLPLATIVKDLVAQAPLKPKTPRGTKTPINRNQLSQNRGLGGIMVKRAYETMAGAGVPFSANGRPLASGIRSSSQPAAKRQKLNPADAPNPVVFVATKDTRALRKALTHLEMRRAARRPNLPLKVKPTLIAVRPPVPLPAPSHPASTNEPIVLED

Molecular target: metastasis-associated protein 2 (MTA2) (human (endogenous in AGS and MKN-45)) (UniProt O94776)
Experiment: co-IP; Co-IP in AGS and MKN-45 cells; also in cells with UCHL3 knockdown or overexpression (Figure 6B,C) and with empty vector or LV-circMTA2 (Figure 6E); no co-IP protocol in the methods

binding: binds
B1: ubiquitin carboxyl-terminal hydrolase L3 (UCHL3) (enzyme, UniProt P15374 1-230)
chain: MEGQRWLPLEANPEVTNQFLKQLGLHPNWQFVDVYGMDPELLSMVPRPVCAVLLLFPITEKYEVFRTEEEEKIKSQGQDVTSSVYFMKQTISNACGTIGLIHAIANNKDKMHFESGSTLKKFLEESVSMSPEERARYLENYDAIRVTHETSAHEGQTEAPSIDEKVDLHFIALVHVDGHLYELDGRKPFPINHGETSDETLLEDAIEVCKKFMERDPDELRFNAIALSAA
